In patent publication US11541084B2, “Method of promoting bone regrowth” (GENMONT BIOTECH INC., priority 2017, dated 2023):

Test system: ovariectomized (OVX) mice
Experiment: Bone tissue analysis by micro computed tomography of the femur in the osteoporosis mouse model
Type: in vivo, mice (ICR female)
Conditions: right femur, tube feed for 28 days, mean ±SD, * p<0.05, ** p<0.01, disease group OVX+H2O 0.344 ± 0.04, sham control 0.502 ± 0.04
Description: Experiment 1: Bone tissue analysis
(§1) (1) preparation of viable bacteria: Inoculating the Lactobacillus plantarum GMNL-662 from a frozen tube to 1 ml of MRS broth, and standing under 37° C. for aerobically incubating for 20 hours. The next day, adding 15 μl culture solution into 1.5 ml of MRS broth (1% secondary activation), and then standing under 37° C. for aerobically incubating for 20 hours. Estimating the bacteria number by using OD 600 to adjust the bacteria concentration to 8×10^7 CFU/ml.
as §1, with “(2)” for “(1)”, “dead” for “viable”, “Plantarum strain” for “plantarum”, “Estimating the bacteria number by using OD 600 to adjust the bacteria concentration to 8×10^7 CFU/ml.” left out
The backbone of the right femur far from the end was taken a computer tomography by a micro computed tomography (SkyScan 1076, Kontizh, Belgium, with resolution of 18 μm), and the trabecular bone volume ratio (i.e. bone volume/tissue volume) is analyzed by a software. The analyzed position was selected to include the area of 100 pieces under the growth plate excluding cortical bone. […] The obtained data in the experiments were analyzed with two-way analysis of variance, and executed T-test statistical analysis. […]

## NCCCC(O)(P(=O)(O)O)P(=O)(O)O [Alendronate, reference compound]
  Femur bone mineral density (BMD, excluding cortical bone): 0.426 ± 0.02* g/cm^3
